Some results were stated once for a whole list of compounds, not compound by compound.
Test system: A431 skin cancer cells
Experiment: Cellular uptake in A431 cells (HPLC)
Conditions: 100 μM for 1 h; limit of detection 2.5 pmol

Compound: CC(C)Cc1ccc(C(C)C(=O)O)cc1 (centres unmarked) [Ibuprofen, reference compound]
- cellular content (cellular extract): < 2.5 pmol

Compound: CC(C)Cc1ccc(C(C)C(=O)OCCCCOP(=O)(O)O)cc1 (centres unmarked) [PI-phosphate 137]
- cellular content (cellular extract): < 2.5 pmol
